Here are results for one molecule from paper PMC4136804.

These are yes or no findings as the source states them, for the method shown. Binding seen in cells or lysates may run through a third protein. A result given as binding can be weak or reduced; the word gives no strength. Sequences can lack the tags named with a protein.

The target in this assay is FLAG-tagged PML (isoform III). Kind of assay: co-IP; myc-tagged ZNF198 and FLAG-tagged PML co-expressed in U2OS cells; anti-myc or anti-FLAG agarose; blots with anti-myc and anti-PML.

B1: myc-tagged full-length ZNF198 (protein, UniProt Q9UBW7 1-1377)
chain: MDTSSVGGLELTDQTPVLLGSTAMATSLTNVGNSFSGPANPLVSRSNKFQNSSVEDDDDVVFIEPVQPPPPSVPVVADQRTITFTSSKNEELQGNDSKITPSSKELASQKGSVSETIVIDDEEDMETNQGQEKNSSNFIERRPPETKNRTNDVDFSTSSFSRSKVNAGMGNSGITTEPDSEIQIANVTTLETGVSSVNDGQLENTDGRDMNLMITHVTSLQNTNLGDVSNGLQSSNFGVNIQTYTPSLTSQTKTGVGPFNPGRMNVAGDVFQNGESATHHNPDSWISQSASFPRNQKQPGVDSLSPVASLPKQIFQPSVQQQPTKPVKVTCANCKKPLQKGQTAYQRKGSAHLFCSTTCLSSFSHKPAPKKLCVMCKKDITTMKGTIVAQVDSSESFQEFCSTSCLSLYEDKQNPTKGALNKSRCTICGKLTEIRHEVSFKNMTHKLCSDHCFNRYRMANGLIMNCCEQCGEYLPSKGAGNNVLVIDGQQKRFCCQSCVSEYKQVGSHPSFLKEVRDHMQDSFLMQPEKYGKLTTCTGCRTQCRFFDMTQCIGPNGYMEPYCSTACMNSHKTKYAKSQSLGIICHFCKRNSLPQYQATMPDGKLYNFCNSSCVAKFQALSMQSSPNGQFVAPSDIQLKCNYCKNSFCSKPEILEWENKVHQFCSKTCSDDYKKLHCIVTYCEYCQEEKTLHETVNFSGVKRPFCSEGCKLLYKQDFARRLGLRCVTCNYCSQLCKKGATKELDGVVRDFCSEDCCKKFQDWYYKAARCDCCKSQGTLKERVQWRGEMKHFCDQHCLLRFYCQQNEPNMTTQKGPENLHYDQGCQTSRTKMTGSAPPPSPTPNKEMKNKAVLCKPLTMTKATYCKPHMQTKSCQTDDTWRTEYVPVPIPVPVYIPVPMHMYSQNIPVPTTVPVPVPVPVFLPAPLDSSEKIPAAIEELKSKVSSDALDTELLTMTDMMSEDEGKTETTNINSVIIETDIIGSDLLKNSDPETQSSMPDVPYEPDLDIEIDFPRAAEELDMENEFLLPPVFGEEYEEQPRPRSKKKGAKRKAVSGYQSHDDSSDNSECSFPFKYTYGVNAWKHWVKTRQLDEDLLVLDELKSSKSVKLKEDLLSHTTAELNYGLAHFVNEIRRPNGENYAPDSIYYLCLGIQEYLCGSNRKDNIFIDPGYQTFEQELNKILRSWQPSILPDGSIFSRVEEDYLWRIKQLGSHSPVALLNTLFYFNTKYFGLKTVEQHLRLSFGTVFRHWKKNPLTMENKACLRYQVSSLCGTDNEDKITTGKRKHEDDEPVFEQIENTANPSRCPVKMFECYLSKSPQNLNQRMDVFYLQPECSSSTDSPVWYTSTSLDRNTLENMLVRVLLVKDIYDKDNYELDEDTD
For the molecule B1, the binding entry is recorded as “binds”.
